Reference: PubChem BioAssay AID210 (DTP/NCI, 2004)
The list is a part of this screen's results and no random one: it is rich in T/C values a quarter to a half above the control, in often repeated tests (any T/C) and in doses without a T/C. Other doses and runs of a compound stand elsewhere. T/C: endpoint of the treated group in % of that of the vehicle group. Some doses have a count of surviving animals in place of a T/C: the source holds a T/C of zero for them, seemingly a mark for toxic or unscored doses. Some survivor counts are full or nearly so, which does not show that the dose was tolerated: the source hardly ever lists a survival T/C far under the control, and the zero likely stands for such cases as well. Counts of survivors are from the toxicity check (mostly the fifth day) where no day follows; animals may have died later. Schedules are NCI's codes, taken here to give the interval after Q, in days (D) or hours (H), and the number of doses after X. Some entries were tested several times; the values are given in rising order. For survival time, the PubChem record calls one and a half times the control and up active, and a quarter to a half above the control has no call in these data; cut-offs in other NCI protocols can differ. Some T/C values carry the count of animals alive at the toxicity check (mostly the fifth day); where none is given, no animal had died by that day.

Test system: CD2F1 mice, ip Colon 26 adenocarcinoma, median survival T/C
Assay: NCI In Vivo Anticancer Drug Screen. Data for tumor model Colon 26 Adenocarcinoma (intraperitoneal) in CD2F1 (CDF1) mice
Conditions: T/C endpoint: median survival time, higher T/C = longer survival
Experimental: The antitumor activity of compounds was measured in mice bearing transplantable tumors. Survival or tumor size were measured and the results are expressed as the measurement made in the treated group (T) divided by the measurement made in the vehicle treated control group (C). The tumor model used in this assay is Colon 26 Adenocarcinoma (intraperitoneal) in CD2F1 (CDF1) mice

[1] = dose: 12.5 mg/kg/injection, schedule: Q04DX003 (ip), vehicle: Klucel (hydroxypropylcellulose) (HPC)
[2] = dose: 50.0 mg/kg/injection, schedule: Q04DX003 (ip), vehicle: Klucel (hydroxypropylcellulose) (HPC)
[3] = dose: 100.0 mg/kg/injection, schedule: Q04DX003 (ip), vehicle: Klucel (hydroxypropylcellulose) (HPC)
[4] = dose: 200.0 mg/kg/injection, schedule: Q04DX003 (ip), vehicle: Klucel (hydroxypropylcellulose) (HPC)
[5] = dose: 400.0 mg/kg/injection, schedule: Q04DX003 (ip), vehicle: Klucel (hydroxypropylcellulose) (HPC)
[6] = dose: 50.0 mg/kg/injection, schedule: Q04DX003 (ip), vehicle: saline with Tween-80
[7] = dose: 25.0 mg/kg/injection, schedule: Q04DX003 (ip), vehicle: saline with Tween-80
[8] = dose: 25.0 mg/kg/injection, schedule: Q04DX003 (ip), vehicle: saline
[9] = dose: 50.0 mg/kg/injection, schedule: Q04DX003 (ip), vehicle: saline
[10] = dose: 100.0 mg/kg/injection, schedule: Q04DX003 (ip), vehicle: saline
[11] = dose: 200.0 mg/kg/injection, schedule: Q04DX003 (ip), vehicle: saline

SMILES: O=NN(CCCl)C(=O)NC1CCC(=O)NC1=O (centres undefined)
- T/C (dose: 22.0 mg/kg/injection, schedule: Q04DX003 (oral), vehicle: saline with Tween-80): 125 % of control
- survivor count (dose: 22.5 mg/kg/injection, schedule: Q04DX003 (ip), vehicle: saline with Tween-80): 9 of 10
- survivor count (dose: 45.0 mg/kg/injection, schedule: Q04DX003 (ip), vehicle: saline with Tween-80): 4 of 10

SMILES: S=c1nc[nH]c2nc[nH]c12
- T/C (dose: 6.25 mg/kg/injection, schedule: Q04DX003 (ip), vehicle: Klucel (hydroxypropylcellulose) (HPC)): 128 % of control
- T/C [1]: 129 % of control
- T/C (dose: 25.0 mg/kg/injection, schedule: Q04DX003 (ip), vehicle: Klucel (hydroxypropylcellulose) (HPC)): 143 % of control
- T/C [2]: 131 % of control
- T/C [3]: 141 % of control
- survivor count [3]: 10 of 10
- survivor count [4]: 1 of 10 and 10 of 10
- survivor count [5]: 10 of 10

SMILES: CCCCCCCC(=O)[O][Hg][CH2]C1COC([CH2][Hg][O]C(=O)CCCCCCC)CO1 (centres undefined)
- survivor count [6]: 2 of 10
- survivor count (dose: 100.0 mg/kg/injection, schedule: Q04DX003 (ip), vehicle: saline with Tween-80): 0 of 10
- survivor count (dose: 200.0 mg/kg/injection, schedule: Q04DX003 (ip), vehicle: saline with Tween-80): 0 of 10

SMILES: CO[C@@]12[C@H](COC(N)=O)C3=C(C(=O)C(C)=C(N)C3=O)N1C[C@@H]1N[C@@H]12
- survivor count (dose: 0.5 mg/kg/injection, schedule: Q01DX004 (ip), vehicle: saline): 0 of 8 on day 14
- survivor count (dose: 2.0 mg/kg/injection, schedule: Q01DX004 (ip), vehicle: saline): 4 of 8 on day 14

SMILES: O=C(O)c1c2c(nc3ccccc13)Cc1ccccc1-2
- T/C (dose: 50.0 mg/kg/injection, schedule: Q04DX002 (ip), vehicle: water): 138 % of control
- T/C (dose: 200.0 mg/kg/injection, schedule: Q04DX002 (ip), vehicle: water): 125 % of control [9 of 10 alive]
- survivor count (dose: 400.0 mg/kg/injection, schedule: Q04DX002 (ip), vehicle: water): 4 of 10

SMILES: CCCC(=O)OCc1cc(=O)n(C)c2c3c4c(cc12)c(C)cc(=O)n4CO3
- T/C [2]: 147 % of control

SMILES: CN(Cc1cnc2nc(N)nc(N)c2n1)c1ccc(C(=O)N[C@@H](CCC(=O)O)C(=O)O)cc1
- survivor count (dose: 30.0 mg/kg/injection, schedule: Q07DX003 (ip), vehicle: sodium bicarbonate): 10 of 10
- survivor count (dose: 63.0 mg/kg/injection, schedule: Q07DX003 (ip), vehicle: sodium bicarbonate): 9 of 10
- survivor count (dose: 90.0 mg/kg/injection, schedule: Q07DX003 (ip), vehicle: saline): 10 of 10
- survivor count (dose: 90.0 mg/kg/injection, schedule: Q07DX003 (ip), vehicle: sodium bicarbonate): 10 of 10

SMILES: CC[N+](CC)(CC)CC
- T/C (dose: 6.25 mg/kg/injection, schedule: Q04DX003 (ip), vehicle: saline with Tween-80): 129 % of control
- T/C (dose: 12.5 mg/kg/injection, schedule: Q04DX003 (ip), vehicle: saline with Tween-80): 145 % of control
- T/C [7]: 127 % of control
- survivor count [7]: 10 of 10

SMILES: OCCN1CCN(CC/C=C2/c3ccccc3Sc3ccc(C(F)(F)F)cc32)CC1
- survivor count [8]: 10 of 10
- survivor count [9]: 10 of 10
- survivor count [10]: 6 of 10

SMILES: CN(C)CCCNc1ccc(NCCCN(C)C)c2c1C(=O)c1ccccc1C2=O
- survivor count (dose: 64.0 mg/kg/injection, schedule: Q01DX009 (ip), vehicle: saline): 8 of 10

SMILES: CN(Cc1cnc2nc(N)nc(N)c2n1)c1c(Cl)cc(C(=O)NC(CCC(=O)O)C(=O)O)cc1Cl (centres undefined)
- T/C [5]: 147 % of control

SMILES: Nc1ccc(C(=O)O)c(O)c1
- survivor count (dose: 112.5 mg/kg/injection, schedule: Q04DX002 (ip), vehicle: saline with Tween-80): 10 of 10
- survivor count (dose: 225.0 mg/kg/injection, schedule: Q04DX002 (ip), vehicle: saline with Tween-80): 10 of 10
- survivor count (dose: 450.0 mg/kg/injection, schedule: Q04DX002 (ip), vehicle: saline with Tween-80): 10 of 10
- survivor count (dose: 900.0 mg/kg/injection, schedule: Q04DX002 (ip), vehicle: saline with Tween-80): 4 of 10
- survivor count (dose: 1800.0 mg/kg/injection, schedule: Q04DX002 (ip), vehicle: saline with Tween-80): 0 of 10

SMILES: N=[N+]=CC(=O)OCC(N)C(=O)O (centres undefined)
- survivor count (dose: 100.0 mg/kg/injection, schedule: Q04DX003 (ip), vehicle: water): 1 of 10

SMILES: CO[C@H](C(=O)[C@@H](O)[C@@H](C)O)[C@@H]1Cc2cc3cc(OC4CC(OC5CC(O)C(O)C(C)O5)C(O)C(C)O4)c(C)c(O)c3c(O)c2C(=O)[C@H]1OC1CC(OC2CC(OC3CC(C)(O)C(O)C(C)O3)C(O)C(C)O2)C(O)C(C)O1 (some centres undefined)
- survivor count (dose: 4.0 mg/kg/injection, schedule: Q04DX003 (ip), vehicle: saline): 0 of 10

SMILES: CC1(CO)C(O)CCC2(C)C1C(O)CC1CC3CC12CCC3(O)CO (centres undefined)
- T/C (dose: 25.0 mg/kg/injection, schedule: Q04DX002 (ip), vehicle: distilled water + Tween-80): 127 % of control

SMILES: CCOC(=O)Nc1cc2c(c(N)n1)N=C(CN(C)c1ccccc1)CN2
- T/C (dose: 3.12 mg/kg/injection, schedule: Q04DX003 (ip), vehicle: Klucel (hydroxypropylcellulose) (HPC)): 137 % of control
- T/C [1]: 125 % of control
- survivor count [3]: 10 of 10

SMILES: Oc1cc2c3c(c1)c1cc4c(cc1c[n+]3CC2)OCO4
- T/C (dose: 3.12 mg/kg/injection, schedule: Q01DX009 (ip), vehicle: distilled water + Tween-80): 147 % of control
- T/C (dose: 6.25 mg/kg/injection, schedule: Q01DX009 (ip), vehicle: distilled water + Tween-80): 126 % of control
- T/C (dose: 12.5 mg/kg/injection, schedule: Q01DX009 (ip), vehicle: distilled water + Tween-80): 131 % of control
- T/C (dose: 12.5 mg/kg/injection, schedule: Q04DX003 (ip), vehicle: distilled water + Tween-80): 147 % of control
- survivor count (dose: 25.0 mg/kg/injection, schedule: Q01DX009 (ip), vehicle: distilled water + Tween-80): 8 of 10
- T/C (dose: 25.0 mg/kg/injection, schedule: Q04DX003 (ip), vehicle: distilled water + Tween-80): 147 % of control
- survivor count (dose: 50.0 mg/kg/injection, schedule: Q01DX009 (ip), vehicle: distilled water + Tween-80): 0 of 10
- T/C (dose: 50.0 mg/kg/injection, schedule: Q04DX003 (ip), vehicle: distilled water + Tween-80): 130 % of control [8 of 10 alive]

SMILES: Cc1c2ccncc2c(C)c2c1[nH]c1ccccc12
- T/C (dose: 12.5 mg/kg/injection, schedule: Q04DX003 (ip), vehicle: saline): 102, 123, 132, 149, 150 % of control
- T/C (dose: 25.0 mg/kg/injection, schedule: Q04DX002 (ip), vehicle: Klucel (hydroxypropylcellulose) (HPC)): 143 % of control
- T/C [8]: 111, 117, 141, 151, 152 % of control
- T/C (dose: 50.0 mg/kg/injection, schedule: Q04DX002 (ip), vehicle: saline): 146 % of control
- T/C [6]: 147 % of control
- T/C [9]: 111, 135, 140, 146, 184 % of control
- T/C [10]: 89, 141, 166, 178, 209 % of control
- survivor count (dose: 200.0 mg/kg/injection, schedule: Q04DX002 (ip), vehicle: Klucel (hydroxypropylcellulose) (HPC)): 10 of 10
- survivor count [4]: 10 of 10
- T/C [11]: 89, 92, 148 % of control
- survivor count [11]: 10 of 10

SMILES: CC(=O)OCC1(C)C(O)CCC2(C)C1CCC1CC3CC12CCC3(O)CO (centres undefined)
- survivor count (dose: 200.0 mg/kg/injection, schedule: Q04DX002 (ip), vehicle: distilled water + Tween-80): 9 of 10

SMILES: [I][Hg][CH2]C1OCCOC1[CH2][Hg][I] (centres undefined)
- survivor count [3]: 9 of 10
- survivor count [4]: 7 of 10
- survivor count [5]: 0 of 10

SMILES: CCSC(=O)N1c2ccc(OC)cc2C=CC1C#N (centres undefined)
- survivor count (dose: 2800.0 mg/kg/injection, schedule: Q04DX002 (ip), vehicle: saline with Tween-80): 10 of 10

SMILES: Cc1ccc(S(=O)(=O)N/N=C/C(=O)O)cc1
- survivor count (dose: 400.0 mg/kg/injection, schedule: Q04DX003 (ip), vehicle: saline with Tween-80): 4 of 10
